Experimental data as given in the supplement of paper PMC10849652.
This is one part of the list.

Chains of the proteins cited; added tags and fusions are not shown. Lines headed by an entry give the natural chain unless they say otherwise; changes in a name come on top.
UniProt P11498: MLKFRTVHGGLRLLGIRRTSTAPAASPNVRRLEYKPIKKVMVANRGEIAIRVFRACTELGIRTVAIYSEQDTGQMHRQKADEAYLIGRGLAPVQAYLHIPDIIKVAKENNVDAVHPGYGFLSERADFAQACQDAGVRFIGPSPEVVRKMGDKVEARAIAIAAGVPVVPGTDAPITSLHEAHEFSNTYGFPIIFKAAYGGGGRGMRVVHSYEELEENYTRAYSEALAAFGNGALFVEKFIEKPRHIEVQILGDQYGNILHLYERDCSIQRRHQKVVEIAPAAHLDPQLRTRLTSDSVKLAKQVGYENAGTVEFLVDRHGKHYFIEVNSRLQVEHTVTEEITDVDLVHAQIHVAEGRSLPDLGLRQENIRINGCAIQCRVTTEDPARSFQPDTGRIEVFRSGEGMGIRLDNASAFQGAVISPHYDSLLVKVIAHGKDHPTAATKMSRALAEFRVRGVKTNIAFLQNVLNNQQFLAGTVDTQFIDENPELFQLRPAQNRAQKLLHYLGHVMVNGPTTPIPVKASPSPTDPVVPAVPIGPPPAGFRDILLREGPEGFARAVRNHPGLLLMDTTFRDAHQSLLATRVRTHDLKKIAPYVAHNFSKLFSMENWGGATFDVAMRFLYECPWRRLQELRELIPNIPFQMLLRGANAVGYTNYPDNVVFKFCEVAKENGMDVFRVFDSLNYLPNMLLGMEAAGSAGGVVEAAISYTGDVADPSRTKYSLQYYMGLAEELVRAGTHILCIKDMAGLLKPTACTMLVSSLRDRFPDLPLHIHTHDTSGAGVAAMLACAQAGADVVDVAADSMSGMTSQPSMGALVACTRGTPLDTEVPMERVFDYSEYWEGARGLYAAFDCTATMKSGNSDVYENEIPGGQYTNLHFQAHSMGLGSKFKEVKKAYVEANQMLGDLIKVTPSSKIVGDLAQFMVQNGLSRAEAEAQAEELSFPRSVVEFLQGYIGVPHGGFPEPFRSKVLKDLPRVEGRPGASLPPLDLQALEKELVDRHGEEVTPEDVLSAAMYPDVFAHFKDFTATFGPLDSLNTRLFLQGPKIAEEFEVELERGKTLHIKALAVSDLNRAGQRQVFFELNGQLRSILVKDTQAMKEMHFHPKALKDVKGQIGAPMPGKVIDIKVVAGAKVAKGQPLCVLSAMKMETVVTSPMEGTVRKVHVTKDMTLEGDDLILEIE
UniProt P61457: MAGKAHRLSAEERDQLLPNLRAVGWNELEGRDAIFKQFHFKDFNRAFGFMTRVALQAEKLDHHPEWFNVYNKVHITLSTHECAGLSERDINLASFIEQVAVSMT
UniProt Q9BRX2, whole entry, looked up: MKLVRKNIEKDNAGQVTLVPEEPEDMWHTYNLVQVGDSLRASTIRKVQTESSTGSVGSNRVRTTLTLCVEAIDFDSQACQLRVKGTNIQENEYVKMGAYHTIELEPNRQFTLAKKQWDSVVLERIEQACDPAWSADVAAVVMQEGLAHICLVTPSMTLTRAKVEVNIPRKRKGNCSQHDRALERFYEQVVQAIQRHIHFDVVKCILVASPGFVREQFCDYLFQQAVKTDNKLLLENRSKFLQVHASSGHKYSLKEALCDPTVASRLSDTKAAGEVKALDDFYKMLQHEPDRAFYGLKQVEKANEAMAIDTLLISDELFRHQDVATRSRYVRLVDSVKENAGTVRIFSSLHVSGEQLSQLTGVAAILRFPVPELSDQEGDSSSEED
UniProt Q9BRP1: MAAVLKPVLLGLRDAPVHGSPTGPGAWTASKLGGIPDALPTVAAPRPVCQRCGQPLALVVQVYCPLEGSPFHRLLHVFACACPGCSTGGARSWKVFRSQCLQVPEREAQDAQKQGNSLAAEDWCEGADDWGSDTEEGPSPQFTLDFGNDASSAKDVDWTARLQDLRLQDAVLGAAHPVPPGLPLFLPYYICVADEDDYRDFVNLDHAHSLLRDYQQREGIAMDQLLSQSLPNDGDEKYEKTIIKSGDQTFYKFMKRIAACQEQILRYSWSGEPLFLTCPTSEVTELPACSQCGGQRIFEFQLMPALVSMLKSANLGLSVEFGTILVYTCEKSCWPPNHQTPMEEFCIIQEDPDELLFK
UniProt P30039: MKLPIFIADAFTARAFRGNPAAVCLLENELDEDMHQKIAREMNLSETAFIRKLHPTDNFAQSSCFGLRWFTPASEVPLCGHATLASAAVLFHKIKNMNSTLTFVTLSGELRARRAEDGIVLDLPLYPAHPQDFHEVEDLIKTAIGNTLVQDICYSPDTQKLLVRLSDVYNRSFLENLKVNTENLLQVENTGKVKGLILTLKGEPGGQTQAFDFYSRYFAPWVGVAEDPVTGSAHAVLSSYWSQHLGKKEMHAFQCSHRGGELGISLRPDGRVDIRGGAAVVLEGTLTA
UniProt O00623: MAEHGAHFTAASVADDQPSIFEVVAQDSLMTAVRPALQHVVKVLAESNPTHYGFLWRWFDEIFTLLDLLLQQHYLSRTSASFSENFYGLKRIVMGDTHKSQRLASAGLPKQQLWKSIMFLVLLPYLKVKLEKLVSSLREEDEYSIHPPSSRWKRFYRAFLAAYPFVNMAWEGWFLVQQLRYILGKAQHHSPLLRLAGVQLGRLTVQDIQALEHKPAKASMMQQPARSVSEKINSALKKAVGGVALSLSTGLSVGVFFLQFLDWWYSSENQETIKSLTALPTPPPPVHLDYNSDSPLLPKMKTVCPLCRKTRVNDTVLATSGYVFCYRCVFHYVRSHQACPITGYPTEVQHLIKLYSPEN
UniProt P11177, whole entry, looked up: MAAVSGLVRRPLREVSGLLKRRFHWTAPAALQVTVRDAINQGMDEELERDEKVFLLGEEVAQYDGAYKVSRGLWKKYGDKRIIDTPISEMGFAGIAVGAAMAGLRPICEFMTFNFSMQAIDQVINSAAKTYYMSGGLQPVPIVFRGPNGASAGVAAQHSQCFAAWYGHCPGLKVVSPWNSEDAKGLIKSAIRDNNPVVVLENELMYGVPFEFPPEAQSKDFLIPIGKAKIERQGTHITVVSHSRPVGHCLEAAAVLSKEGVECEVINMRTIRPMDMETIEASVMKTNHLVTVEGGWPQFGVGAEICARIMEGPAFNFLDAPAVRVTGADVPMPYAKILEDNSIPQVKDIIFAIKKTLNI
UniProt O14737: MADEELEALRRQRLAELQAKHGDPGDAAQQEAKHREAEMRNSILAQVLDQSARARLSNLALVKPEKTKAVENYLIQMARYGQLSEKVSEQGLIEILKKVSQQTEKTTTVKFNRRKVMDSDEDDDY
UniProt Q86SE9: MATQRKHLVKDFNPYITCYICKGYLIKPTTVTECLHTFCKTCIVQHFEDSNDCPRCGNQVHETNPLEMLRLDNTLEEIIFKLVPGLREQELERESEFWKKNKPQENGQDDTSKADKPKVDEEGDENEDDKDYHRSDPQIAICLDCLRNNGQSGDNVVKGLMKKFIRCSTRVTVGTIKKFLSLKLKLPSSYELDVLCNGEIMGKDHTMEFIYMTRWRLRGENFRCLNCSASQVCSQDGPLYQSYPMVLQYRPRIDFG
UniProt Q9H0N5: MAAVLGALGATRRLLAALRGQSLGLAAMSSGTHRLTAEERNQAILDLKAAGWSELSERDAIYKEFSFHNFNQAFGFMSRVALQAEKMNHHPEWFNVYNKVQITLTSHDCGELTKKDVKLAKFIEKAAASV
UniProt Q14690: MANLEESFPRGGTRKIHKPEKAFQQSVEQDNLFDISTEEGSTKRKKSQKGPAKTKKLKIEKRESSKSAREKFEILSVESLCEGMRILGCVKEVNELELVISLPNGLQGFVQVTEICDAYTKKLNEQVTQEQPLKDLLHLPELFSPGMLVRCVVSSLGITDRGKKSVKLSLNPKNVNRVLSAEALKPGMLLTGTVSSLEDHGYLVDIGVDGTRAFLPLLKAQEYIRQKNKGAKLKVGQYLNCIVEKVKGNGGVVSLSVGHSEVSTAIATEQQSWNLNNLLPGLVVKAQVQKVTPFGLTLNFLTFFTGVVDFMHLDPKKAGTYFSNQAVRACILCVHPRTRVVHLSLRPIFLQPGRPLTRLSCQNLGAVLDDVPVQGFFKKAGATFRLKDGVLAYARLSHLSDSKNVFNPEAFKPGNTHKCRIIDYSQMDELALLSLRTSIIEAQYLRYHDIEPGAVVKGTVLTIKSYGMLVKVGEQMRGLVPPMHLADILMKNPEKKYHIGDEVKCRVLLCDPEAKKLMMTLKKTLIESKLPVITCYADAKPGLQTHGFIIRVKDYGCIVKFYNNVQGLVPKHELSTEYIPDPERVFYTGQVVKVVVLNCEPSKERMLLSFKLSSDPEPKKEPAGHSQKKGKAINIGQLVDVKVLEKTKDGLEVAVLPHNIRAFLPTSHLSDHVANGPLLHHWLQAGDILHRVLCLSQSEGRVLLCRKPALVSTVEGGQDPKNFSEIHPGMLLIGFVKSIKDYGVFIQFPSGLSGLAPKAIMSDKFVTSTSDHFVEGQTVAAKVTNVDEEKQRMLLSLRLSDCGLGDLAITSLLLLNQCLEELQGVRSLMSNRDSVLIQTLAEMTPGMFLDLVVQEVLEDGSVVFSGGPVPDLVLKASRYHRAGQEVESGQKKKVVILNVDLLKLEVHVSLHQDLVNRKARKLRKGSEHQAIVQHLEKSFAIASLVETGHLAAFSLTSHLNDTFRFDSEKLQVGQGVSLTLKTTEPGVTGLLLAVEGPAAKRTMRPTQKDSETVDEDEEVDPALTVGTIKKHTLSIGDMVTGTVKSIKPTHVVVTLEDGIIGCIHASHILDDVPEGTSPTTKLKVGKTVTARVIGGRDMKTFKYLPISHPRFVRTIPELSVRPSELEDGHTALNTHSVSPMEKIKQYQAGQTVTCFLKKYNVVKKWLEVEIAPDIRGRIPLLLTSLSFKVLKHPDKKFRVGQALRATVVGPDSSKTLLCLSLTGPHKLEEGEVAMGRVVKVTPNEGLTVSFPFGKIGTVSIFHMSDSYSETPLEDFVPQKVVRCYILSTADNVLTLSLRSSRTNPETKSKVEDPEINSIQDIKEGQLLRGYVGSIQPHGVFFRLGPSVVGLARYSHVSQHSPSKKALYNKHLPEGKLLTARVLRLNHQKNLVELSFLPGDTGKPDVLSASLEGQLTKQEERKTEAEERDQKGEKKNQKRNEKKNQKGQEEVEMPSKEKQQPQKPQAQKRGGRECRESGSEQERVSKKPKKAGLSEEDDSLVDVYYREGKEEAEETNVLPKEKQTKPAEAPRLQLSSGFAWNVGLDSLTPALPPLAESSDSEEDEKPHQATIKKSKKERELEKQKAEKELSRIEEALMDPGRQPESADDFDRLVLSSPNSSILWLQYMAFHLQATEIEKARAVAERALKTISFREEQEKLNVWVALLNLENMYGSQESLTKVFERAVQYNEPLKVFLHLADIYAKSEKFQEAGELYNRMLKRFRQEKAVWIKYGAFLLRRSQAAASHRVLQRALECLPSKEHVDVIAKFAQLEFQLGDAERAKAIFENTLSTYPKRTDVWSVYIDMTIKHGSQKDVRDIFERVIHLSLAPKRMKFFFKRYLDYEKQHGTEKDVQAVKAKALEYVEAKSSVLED
UniProt Q9NVE7: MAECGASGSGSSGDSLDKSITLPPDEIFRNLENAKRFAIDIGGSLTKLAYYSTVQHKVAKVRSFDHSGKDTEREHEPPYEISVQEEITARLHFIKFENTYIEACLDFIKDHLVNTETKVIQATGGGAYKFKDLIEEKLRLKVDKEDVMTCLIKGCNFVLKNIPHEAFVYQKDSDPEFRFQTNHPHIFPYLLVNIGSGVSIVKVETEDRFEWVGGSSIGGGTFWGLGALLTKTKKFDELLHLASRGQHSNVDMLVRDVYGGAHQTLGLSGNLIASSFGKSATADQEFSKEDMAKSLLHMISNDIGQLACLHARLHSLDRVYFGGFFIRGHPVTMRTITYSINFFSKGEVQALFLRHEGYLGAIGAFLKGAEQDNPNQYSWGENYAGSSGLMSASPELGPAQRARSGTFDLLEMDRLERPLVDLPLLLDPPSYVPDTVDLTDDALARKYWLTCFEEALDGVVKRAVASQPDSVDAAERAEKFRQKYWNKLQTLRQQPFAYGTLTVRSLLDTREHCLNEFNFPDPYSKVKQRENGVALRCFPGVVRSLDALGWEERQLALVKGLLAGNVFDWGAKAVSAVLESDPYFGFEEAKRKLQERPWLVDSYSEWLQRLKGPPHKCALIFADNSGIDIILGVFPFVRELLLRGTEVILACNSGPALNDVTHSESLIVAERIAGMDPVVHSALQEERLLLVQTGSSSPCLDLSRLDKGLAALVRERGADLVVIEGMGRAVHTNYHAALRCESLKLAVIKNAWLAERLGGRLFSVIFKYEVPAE
UniProt Q9Y5K3: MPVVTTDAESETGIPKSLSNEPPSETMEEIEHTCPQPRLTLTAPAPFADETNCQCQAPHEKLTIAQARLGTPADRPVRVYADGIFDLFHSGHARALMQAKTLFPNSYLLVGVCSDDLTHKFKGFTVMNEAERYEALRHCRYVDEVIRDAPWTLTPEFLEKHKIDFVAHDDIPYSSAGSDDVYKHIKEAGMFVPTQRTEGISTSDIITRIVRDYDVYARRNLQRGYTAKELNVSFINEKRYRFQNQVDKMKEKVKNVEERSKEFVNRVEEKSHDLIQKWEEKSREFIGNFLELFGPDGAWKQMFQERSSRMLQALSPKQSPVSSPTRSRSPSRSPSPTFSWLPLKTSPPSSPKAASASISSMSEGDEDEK

Legend:
Test in all cases: log2 fold change, soluble protein after heating vs DMSO (PISA); higher = thermal stabilisation; K562 cells, 10 uM, 30 min; active = over 0.2 and 3.5 SD of the protein, either way, in both replicates (recomputed)
[1] = compound: C1=CC=C(C=C1)[C@H](COC2=CC3=C(C=C2)NC(=O)N3)NC(=O)C4=CC=CN(C4=O)CC5=CC(=C(C=C5)F)F
Procedure, shortened: (§1)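 Quantification of soluble protein used TMTpro 16plex LC-MS/MS, with channel sums equalised. Samples were the supernatant after 21,000xg for 90 min of pooled aliquots from K562 cells (2×10^6 cells/mL) treated with 10 μM compound for 30 min, heated for 3 min over 48°C-58°C, and extracted in PBS with 0.5% NP-40 at 4°C. Values, from duplicates, describe thermal stability against control samples on a log2 fold-change scale.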

[2] = compound: CC1=C(SC2=C1C(=N[C@H](C3=NN=C(N32)C)CC(=O)N)C4=CC=C(C=C4)Cl)C
Procedure, shortened: as §1

[3] = compound: CC1=C2C(=CC=C1)N=C(N(C2=O)C3=CC=CC=C3C)CN4C=NC5=C(N=CN=C54)N
Procedure, shortened: as §1

[4] = compound: Cc1sc2c(c1C)C(c1ccc(Cl)cc1)=N[C@@H](CC(=O)OC(C)(C)C)c1nnc(C)n1-2
Procedure, shortened: as §1

[5] = compound: c1ccc([C@@H]2C[C@H]2NC2CCNCC2)cc1
Procedure, shortened: as §1

Measured: log2 fold change

PCYOX1 (UniProt Q9UHG3)
inactive: [1] -0.061 | [2] 0.01 | [3] 0.006 | [4] -0.054 | [5] 0.02

PC (UniProt P11498)
inactive: [1] -0.012 | [2] 0.031 | [3] 0.111 | [4] 0.025 | [5] -0.021

PASK (UniProt Q96RG2)
inactive: [1] -0.102 | [2] 0.047 | [3] 0.031 | [4] 0.025 | [5] -0.001

PAFAH1B2 (UniProt P68402)
inactive: [1] -0.042 | [2] -0.078 | [3] 0.078 | [4] 0.004 | [5] 0.082

PCBD1 (UniProt P61457)
inactive: [1] 0.024 | [2] 0.069 | [3] 0.098 | [4] -0.034 | [5] -0.026

PARN (UniProt O95453)
inactive: [1] -0.018 | [2] 0.059 | [3] 0.071 | [4] -0.028 | [5] 0.025

PELO (UniProt Q9BRX2)
inactive: [1] -0.037 | [2] 0.116 | [3] 0.103 | [4] 0.064 | [5] -0.049

PDCD2L (UniProt Q9BRP1)
inactive: [1] -0.031 | [2] 0.055 | [3] 0.109 | [4] 0.021 | [5] 0.091

2 neighbouring entries from above, quoted:
PELO (UniProt Q9BRX2)
inactive: [1] -0.037 | [2] 0.116 | [3] 0.103 | [4] 0.064 | [5] -0.049

PDCD2L (UniProt Q9BRP1)
inactive: [1] -0.031 | [2] 0.055 | [3] 0.109 | [4] 0.021 | [5] 0.091

(cont.)

PBLD (UniProt P30039)
inactive: [1] -0.082 | [2] 0.141 | [3] 0.087 | [4] -0.036 | [5] -0.021

PEX12 (UniProt O00623)
inactive: [1] -0.068 | [2] 0.052 | [3] 0.086 | [4] -0.022 | [5] -0.002

PDHB (UniProt P11177)
inactive: [1] 0.034 | [2] -0.026 | [3] -0.002 | [4] -0.033 | [5] -0.045

PDCD5 (UniProt O14737)
inactive: [1] -0.002 | [2] 0.015 | [3] 0.023 | [4] -0.024 | [5] 0.001

PCGF5 (UniProt Q86SE9)
inactive: [1] -0.033

PDE4DIP isoform 4 (UniProt Q5VU43)
inactive: [1] 0.023 | [2] 0.043 | [3] 0.046 | [4] -0.023 | [5] -0.011

PANX1 (UniProt Q96RD7)
inactive: [1] -0.018 | [2] 0.051 | [3] 0.068 | [4] -0.018 | [5] 0.024

PCBD2 (UniProt Q9H0N5)
inactive: [1] 0.009 | [2] 0.026 | [3] -0.02 | [4] 0.018 | [5] 0.013

PEPD (UniProt P12955)
inactive: [1] 0.004 | [2] 0.051 | [3] 0.043 | [4] 0.029 | [5] -0.037

PAXX (UniProt Q9BUH6)
inactive: [1] 0.013 | [2] -0.023 | [3] 0.019 | [4] -0.009 | [5] -0.014

PAK1IP1 (UniProt Q9NWT1)
inactive: [1] 0.087 | [2] -0.282 | [3] -0.343 | [4] 0.273 | [5] 0.021

PET100 (UniProt P0DJ07)
inactive: [1] 0.003 | [2] 0.041 | [3] 0.084 | [4] -0.061 | [5] -0.021

PDCD11 (UniProt Q14690)
inactive: [1] -0.255 | [2] -0.001 | [3] 0.209 | [4] -0.045 | [5] -0.02

PCID2 (UniProt Q5JVF3)
inactive: [1] -0.18 | [2] 0.057 | [3] 0.159 | [4] 0.033 | [5] -0.071

PACSIN2 (UniProt Q9UNF0)
inactive: [1] -0.134 | [2] 0.079 | [3] 0.103 | [4] 0.009 | [5] -0.091

PANK4 (UniProt Q9NVE7)
inactive: [1] -0.051 | [2] 0.09 | [3] 0.04 | [4] 0.007 | [5] -0.018

PCYT1B (UniProt Q9Y5K3)
inactive: [1] -0.063 | [2] -0.003 | [3] 0.022 | [4] 0.042 | [5] 0.034
